From the supplement of paper PMC11732987, “Enantioselective OTUD7B fragment discovery through chemoproteomics screening and high-throughput optimisation” (Communications Chemistry, 2025)
Some of the results follow. The data scatter; read single values as rough.

What follows are compounds tested on HIVEP2 C2329 (assay: log2 mean competition ratio of IA-DTB cysteine labelling (DMSO/compound) (log2 ratio); higher = stronger cysteine engagement by compound). Conditions: 50 µM; treatment time: 4 h; cell line lysate: HEK293T.
Protocol: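 IA-DTB competitive cysteine chemoproteomics in HEK293T RIPA lysate. Lysates were treated with compound 29 or 30 at 50 or 200 µM for 4 h, then IA-DTB (500 µM, 1 h), trypsin-digested, NeutrAvidin-enriched and analysed by diaPASEF. Competition ratio = intensity DMSO / intensity compound (n=4 treated, n=64 DMSO); binding: mean log2 CR ≥ 1 and p ≤ 0.05 plus QC filters. Target is the cysteine site.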

Compound | log2 mean competition ratio
O=C(CCl)N[C@@H]1CCCc2ccccc21 | 0.0137
O=C(CCl)N[C@H]1CCCc2ccccc21 | 0.0117

Same assay, conditions: 200 µM; treatment time: 4 h; cell line lysate: HEK293T

Compound | log2 mean competition ratio
O=C(CCl)N[C@@H]1CCCc2ccccc21 | 0.0072
O=C(CCl)N[C@H]1CCCc2ccccc21 | -0.141
